Measured values: article PMC4378997
Read-outs that look alike come from different tables or passages of the source. No constants are given. Whether binding was seen depends on the method and setting. Binding seen in cells or lysates may run through a third protein. Here binding means that the protein was enriched with, or labelled near, the bait; the list need not be complete.

Amino acid sequences for entries named in this document (tags omitted).
UniProt Q03018: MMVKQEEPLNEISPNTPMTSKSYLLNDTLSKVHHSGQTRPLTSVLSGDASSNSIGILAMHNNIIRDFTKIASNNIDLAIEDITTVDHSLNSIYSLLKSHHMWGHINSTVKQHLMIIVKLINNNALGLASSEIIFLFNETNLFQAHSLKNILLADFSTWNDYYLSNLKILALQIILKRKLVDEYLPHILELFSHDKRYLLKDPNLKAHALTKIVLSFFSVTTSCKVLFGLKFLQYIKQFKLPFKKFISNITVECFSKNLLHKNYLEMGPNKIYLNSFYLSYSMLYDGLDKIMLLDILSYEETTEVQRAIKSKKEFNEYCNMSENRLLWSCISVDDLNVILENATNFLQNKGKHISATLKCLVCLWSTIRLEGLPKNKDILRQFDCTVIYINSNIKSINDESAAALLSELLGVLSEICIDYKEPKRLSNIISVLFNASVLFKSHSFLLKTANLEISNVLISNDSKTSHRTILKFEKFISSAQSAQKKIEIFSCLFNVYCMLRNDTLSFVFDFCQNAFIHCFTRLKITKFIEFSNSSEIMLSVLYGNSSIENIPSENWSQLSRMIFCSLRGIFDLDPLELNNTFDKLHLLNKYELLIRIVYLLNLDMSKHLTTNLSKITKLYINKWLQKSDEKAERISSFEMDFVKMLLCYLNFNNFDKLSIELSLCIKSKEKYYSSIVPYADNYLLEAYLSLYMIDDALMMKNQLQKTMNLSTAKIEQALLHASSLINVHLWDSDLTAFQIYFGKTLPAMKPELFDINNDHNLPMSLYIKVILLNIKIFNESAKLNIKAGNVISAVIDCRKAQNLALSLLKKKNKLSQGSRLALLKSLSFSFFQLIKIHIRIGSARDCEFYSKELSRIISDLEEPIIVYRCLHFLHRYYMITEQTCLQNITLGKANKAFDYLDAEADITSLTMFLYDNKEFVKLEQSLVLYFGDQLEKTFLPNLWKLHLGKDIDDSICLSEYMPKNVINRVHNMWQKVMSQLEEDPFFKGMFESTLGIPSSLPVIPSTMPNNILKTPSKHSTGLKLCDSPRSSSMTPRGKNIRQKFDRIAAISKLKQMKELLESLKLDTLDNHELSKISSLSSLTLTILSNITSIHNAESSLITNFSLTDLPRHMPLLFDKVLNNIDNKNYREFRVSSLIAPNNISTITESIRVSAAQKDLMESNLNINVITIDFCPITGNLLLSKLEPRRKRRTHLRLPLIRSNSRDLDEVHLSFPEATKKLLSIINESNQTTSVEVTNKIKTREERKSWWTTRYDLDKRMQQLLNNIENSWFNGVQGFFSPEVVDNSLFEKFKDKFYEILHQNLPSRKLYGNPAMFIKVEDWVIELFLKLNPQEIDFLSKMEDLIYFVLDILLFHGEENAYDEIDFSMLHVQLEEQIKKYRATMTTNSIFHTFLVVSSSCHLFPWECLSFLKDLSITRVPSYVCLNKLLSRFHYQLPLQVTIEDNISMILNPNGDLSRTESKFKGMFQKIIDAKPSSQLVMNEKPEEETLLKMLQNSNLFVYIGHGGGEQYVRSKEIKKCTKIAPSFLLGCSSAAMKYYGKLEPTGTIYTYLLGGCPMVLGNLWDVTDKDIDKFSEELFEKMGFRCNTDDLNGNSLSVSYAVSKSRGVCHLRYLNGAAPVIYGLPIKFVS
UniProt P32558: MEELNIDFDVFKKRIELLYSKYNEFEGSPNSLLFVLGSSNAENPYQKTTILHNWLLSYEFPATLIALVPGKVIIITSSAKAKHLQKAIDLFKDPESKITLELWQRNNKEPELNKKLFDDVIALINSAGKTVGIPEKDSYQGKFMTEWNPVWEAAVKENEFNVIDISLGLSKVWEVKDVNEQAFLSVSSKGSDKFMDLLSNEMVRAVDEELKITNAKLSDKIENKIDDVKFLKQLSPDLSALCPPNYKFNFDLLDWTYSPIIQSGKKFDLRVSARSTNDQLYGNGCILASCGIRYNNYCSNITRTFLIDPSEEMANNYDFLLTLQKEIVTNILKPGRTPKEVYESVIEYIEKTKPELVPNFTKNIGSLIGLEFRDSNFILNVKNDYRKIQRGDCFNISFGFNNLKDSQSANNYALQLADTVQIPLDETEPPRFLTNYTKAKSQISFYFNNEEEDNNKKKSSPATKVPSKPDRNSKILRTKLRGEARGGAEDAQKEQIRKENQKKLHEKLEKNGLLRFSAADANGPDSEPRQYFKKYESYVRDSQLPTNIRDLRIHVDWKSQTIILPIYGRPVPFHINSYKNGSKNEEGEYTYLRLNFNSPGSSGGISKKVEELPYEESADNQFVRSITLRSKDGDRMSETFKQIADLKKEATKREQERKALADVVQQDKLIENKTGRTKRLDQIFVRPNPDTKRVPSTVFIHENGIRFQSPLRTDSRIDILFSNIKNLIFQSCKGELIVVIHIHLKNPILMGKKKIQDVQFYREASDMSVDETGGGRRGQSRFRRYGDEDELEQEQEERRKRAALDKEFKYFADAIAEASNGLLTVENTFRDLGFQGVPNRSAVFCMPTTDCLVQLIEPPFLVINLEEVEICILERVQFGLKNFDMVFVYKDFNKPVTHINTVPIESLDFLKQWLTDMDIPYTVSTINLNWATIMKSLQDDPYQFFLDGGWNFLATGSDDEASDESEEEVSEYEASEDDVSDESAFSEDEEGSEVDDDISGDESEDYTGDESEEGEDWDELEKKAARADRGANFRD
UniProt P34160: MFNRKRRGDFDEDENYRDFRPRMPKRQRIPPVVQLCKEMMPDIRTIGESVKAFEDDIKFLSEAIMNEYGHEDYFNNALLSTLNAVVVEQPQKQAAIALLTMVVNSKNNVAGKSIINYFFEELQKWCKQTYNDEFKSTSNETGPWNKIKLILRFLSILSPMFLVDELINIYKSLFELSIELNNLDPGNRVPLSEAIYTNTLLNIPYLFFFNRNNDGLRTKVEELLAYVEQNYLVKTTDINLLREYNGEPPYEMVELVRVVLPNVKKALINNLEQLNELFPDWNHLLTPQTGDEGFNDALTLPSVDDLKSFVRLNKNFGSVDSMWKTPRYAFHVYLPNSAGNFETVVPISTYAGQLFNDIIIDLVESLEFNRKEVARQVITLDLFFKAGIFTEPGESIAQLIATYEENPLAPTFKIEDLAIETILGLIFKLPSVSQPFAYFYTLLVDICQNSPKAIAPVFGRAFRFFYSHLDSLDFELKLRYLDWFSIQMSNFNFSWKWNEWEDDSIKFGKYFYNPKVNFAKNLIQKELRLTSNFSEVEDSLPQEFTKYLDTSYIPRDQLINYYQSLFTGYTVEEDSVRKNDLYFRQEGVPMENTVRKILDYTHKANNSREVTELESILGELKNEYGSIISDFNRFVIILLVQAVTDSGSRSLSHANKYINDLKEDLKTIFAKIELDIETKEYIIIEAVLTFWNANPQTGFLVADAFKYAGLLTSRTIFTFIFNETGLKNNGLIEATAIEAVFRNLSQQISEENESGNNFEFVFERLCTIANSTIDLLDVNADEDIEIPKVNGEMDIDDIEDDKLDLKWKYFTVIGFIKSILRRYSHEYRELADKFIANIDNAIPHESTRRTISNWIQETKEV

Legend:
[1] = biological target: 13Myc-tagged Esp1 (S. cerevisiae) (UniProt Q03018); assay: affinity purification with mass spectrometry; one-step IP of Esp1-13Myc from lysate of logarithmically growing yeast with 9E10 anti-Myc antibody cross-linked to Sepharose, 4 h at 4°C, washes with 500mM NaCl; compared by spectral counting with a mock IP from an untagged strain
[2] = biological target: 13Myc-tagged Esp1 (S. cerevisiae) (UniProt Q03018); assay: as above; remark: listed apart in the source

Molecule	binding [1]	binding [2]
Spt16 (from UniProt P32558 1-1035)	binds	–
Rnr1 (protein, UniProt P21524 1-888) MYVYKRDGRKEPVQFDKITARISRLCYGLDPKHIDAVKVTQRIISGVYEGVTTIELDNLAAETCAYMTTVHPDYATLAARIAISNLHKQTTKQFSKVVEDLYRYVNAATGKPAPMISDDVYNIVMENKDKLNSAIVYDRDFQYSYFGFKTLERSYLLRINGQVAERPQHLIMRVALGIHGRDIEAALETYNLMSLKYFTHASPTLFNAGTPKPQMSSCFLVAMKEDSIEGIYDTLKECALISKTAGGIGLHIHNIRSTGSYIAGTNGTSNGLIPMIRVFNNTARYVDQGGNKRPGAFALYLEPWHADIFDFIDIRKNHGKEEIRARDLFPALWIPDLFMKRVEENGTWTLFSPTSAPGLSDCYGDEFEALYTRYEKEGRGKTIKAQKLWYSILEAQTETGTPFVVYKDACNRKSNQKNLGVIKSSNLCCEIVEYSAPDETAVCNLASVALPAFIETSEDGKTSTYNFKKLHEIAKVVTRNLNRVIDRNYYPVEEARKSNMRHRPIALGVQGLADTFMLLRLPFDSEEARLLNIQIFETIYHASMEASCELAQKDGPYETFQGSPASQGILQFDMWDQKPYGMWDWDTLRKDIMKHGVRNSLTMAPMPTASTSQILGYNECFEPVTSNMYSRRVLSGEFQVVNPYLLRDLVDLGIWDEGMKQYLITQNGSIQGLPNVPQELKDLYKTVWEISQKTIINMAADRSVYIDQSHSLNLFLRAPTMGKLTSMHFYGWKKGLKTGMYYLRTQAASAAIQFTIDQKIADQATENVADISNLKRPSYMPSSASYAASDFVPAAVTANATIPSLDSSSEASREASPAPTGSHSLTKGMAELNVQESKVEVPEVPAPTKNEEKAAPIVDDEETEFDIYNSKVIACAIDNPEACEMCSG	–	binds
Nam7 (protein, UniProt P30771 1-971) MVGSGSHTPYDISNSPSDVNVQPATQLNSTLVEDDDVDNQLFEEAQVTETGFRSPSASDNSCAYCGIDSAKCVIKCNSCKKWFCNTKNGTSSSHIVNHLVLSHHNVVSLHPDSDLGDTVLECYNCGRKNVFLLGFVSAKSEAVVVLLCRIPCAQTKNANWDTDQWQPLIEDRQLLSWVAEQPTEEEKLKARLITPSQISKLEAKWRSNKDATINDIDAPEEQEAIPPLLLRYQDAYEYQRSYGPLIKLEADYDKQLKESQALEHISVSWSLALNNRHLASFTLSTFESNELKVAIGDEMILWYSGMQHPDWEGRGYIVRLPNSFQDTFTLELKPSKTPPPTHLTTGFTAEFIWKGTSYDRMQDALKKFAIDKKSISGYLYYKILGHQVVDISFDVPLPKEFSIPNFAQLNSSQSNAVSHVLQRPLSLIQGPPGTGKTVTSATIVYHLSKIHKDRILVCAPSNVAVDHLAAKLRDLGLKVVRLTAKSREDVESSVSNLALHNLVGRGAKGELKNLLKLKDEVGELSASDTKRFVKLVRKTEAEILNKADVVCCTCVGAGDKRLDTKFRTVLIDESTQASEPECLIPIVKGAKQVILVGDHQQLGPVILERKAADAGLKQSLFERLISLGHVPIRLEVQYRMNPYLSEFPSNMFYEGSLQNGVTIEQRTVPNSKFPWPIRGIPMMFWANYGREEISANGTSFLNRIEAMNCERIITKLFRDGVKPEQIGVITPYEGQRAYILQYMQMNGSLDKDLYIKVEVASVDAFQGREKDYIILSCVRANEQQAIGFLRDPRRLNVGLTRAKYGLVILGNPRSLARNTLWNHLLIHFREKGCLVEGTLDNLQLCTVQLVRPQPRKTERPMNAQFNVESEMGDFPKFQDFDAQSMVSFSGQIGDFGNAFVDNTELSSYINNEYWNFENFKSAFSQKQNRNEIDDRNLYQEEASHLNSNFARELQREEQKHELSKDFSNLGI	–	binds

Continued, values first:

binding [1]	binding [2]	Molecule
binds	–	Sto1 (from UniProt P34160 1-861)
–	binds	Smi1 (protein, UniProt P32566 1-505) MDLFKRKVKEWVYSLSTDDHYAEYNPDETPTFNMGKRLNSNNGQVNPSQMHLNSVDEEMSMGFQNGVPSNEDINIDEFTSTESNDGVSETLLAWRHIDFWTSEHNPDLNATLSDPCTQNDITHAEEDLEVSFPNPVKASFKIHDGQEDLESMTGTSGLFYGFQLMTLDQVVAMTQAWRNVAKNLNKRSQQGLSHVTSTGSSSSMERLNGNKFKLPNIPDQKSIPPNAVQPVYAHPAWIPLITDNAGNHIGVDLAPGPNGKYAQIITFGRDFDTKFVIAENWGEFLLSFANDLEAGNWYLVDDNDDYFSGDGELVFRDKKSNGPIQDYFEVLKRRTWIKYQENLRSQQQKSQPDTSLQEQKYVPASQKKVAAEQPSTLNAESIKGEDSGSADVQSVQDHESVKIVKTEPSEAETTTVNTESLGQAEHEIKADNVDIKQESERKEDEKQPKVEEKEHVENEHVTESAKKDDDVNKQTEEMNKKEENEIRSDDAKVEEAREEFENIAL
